Results on 30 sequences are retold here after article PMC10294661.

Construct, isoform or probe ends are uncertain for at least one entry. No signal at the amounts used counts as a negative. Where a protein sequence is shown, tags need not be part of it. A weaker result is weaker than the reference pair of the same experiment. At least one verdict rests on a figure or table, not on a statement of the authors.

In the first series the target is T1, 6xHis-WhiJ9 (Streptomyces venezuelae) (UniProt F2RAJ0).
T1 sequence (looked up, limits assumed): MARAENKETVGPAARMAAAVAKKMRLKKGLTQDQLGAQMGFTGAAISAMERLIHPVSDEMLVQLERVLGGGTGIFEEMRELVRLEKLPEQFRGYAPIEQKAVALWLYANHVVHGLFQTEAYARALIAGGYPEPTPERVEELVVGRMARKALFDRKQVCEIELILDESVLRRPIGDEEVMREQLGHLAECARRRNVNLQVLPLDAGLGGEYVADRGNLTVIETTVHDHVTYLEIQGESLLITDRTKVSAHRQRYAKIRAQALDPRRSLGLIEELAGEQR
In words: SPR. The note with it: SPR (ReDCaT): 10 mM HEPES pH 7.4, 250 mM NaCl, 3 mM EDTA, 0.05% Tween 20; DNA 1 uM; temperature not stated; recombinant protein; protein details: N-terminal 6xHis (pET15b); label: captured via biotinylated ReDCaT linker.
For the sequence “ACCGATCTCAACCGGTCTCAAC / GTTGAGACCGGTTGAGATCGGTCCTACCCTACGTCCTCCTGC [LH10]”, the binding result is recorded as “binds more weakly”. Still for that read-out and setting: the value for “ATCTCAACCGGTCTCAAC / GTTGAGACCGGTTGAGATCCTACCCTACGTCCTCCTGC [LH12]” was “binds more weakly”; that for “CAACCGATCTCAACCGGTCTCAAC / GTTGAGACCGGTTGAGATCGGTTGCCTACCCTACGTCCTCCTGC [LH9]” was “binds more weakly”.

For the sequence “CCGACGCGCCCGCCACAGTCGTGGAAAACGCTAGCGCCGG / CCGGCGCTAGCGTTTTCCACGACTGTGGCGGGCGCGTCGGCCTACCCTACGTCCTCCTGC [O5]”, the binding result is given as “no binding”. On the same count and under the same terms, the value for “CCGCCGAATTCGACTGCACACGAGGGGCGTTGGTGCAGGT / ACCTGCACCAACGCCCCTCGTGTGCAGTCGAATTCGGCGGCCTACCCTACGTCCTCCTGC [O3]” was “no binding”; that for “CGATCTCAACCGGTCTCAAC / GTTGAGACCGGTTGAGATCGCCTACCCTACGTCCTCCTGC [LH11]” was “binds more weakly”; that for “CGGACTCAACCGATCTCAACCGGTCTCAAC / CCTACCCTACGTCCTCCTGCGTTGAGACCGGTTGAGATCGGTTGAGTCCG [RH6]” was “binds more weakly”. Still for that read-out and setting: in the case of “CGGACTCAACCGATCTCAACCGGTCTCAACTG / CCTACCCTACGTCCTCCTGCCAGTTGAGACCGGTTGAGATCGGTTGAGTCCG [RH5]” it was “binds more weakly”; in that of “CGGACTCAACCGATCTCAACCGGTCTCAACTGCT / CCTACCCTACGTCCTCCTGCAGCAGTTGAGACCGGTTGAGATCGGTTGAGTCCG [RH4]”, “binds more weakly”. The same measure, in the same setting: in the case of “CGGACTCAACCGATCTCAACCGGTCTCAACTGCTCC / CCTACCCTACGTCCTCCTGCGGAGCAGTTGAGACCGGTTGAGATCGGTTGAGTCCG [RH3]” it was “binds more weakly”. As to “CGGACTCAACCGATCTCAACCGGTCTCAACTGCTCCCCGC / CCTACCCTACGTCCTCCTGCGCGGGGAGCAGTTGAGACCGGTTGAGATCGGTTGAGTCCG [RH1]”, the binding result is recorded as “binds”.

In the case of “CTCAACCGATCTCAACCGGTCTCAAC / GTTGAGACCGGTTGAGATCGGTTGAGCCTACCCTACGTCCTCCTGC [LH8]”, the binding result is “binds more weakly”. For the sequence “CTCAACCGGTCTCAAC / GTTGAGACCGGTTGAGCCTACCCTACGTCCTCCTGC [LH13]”, the binding result is “no binding”. Still for that read-out and setting: the value for “GACTCAACCGATCTCAACCGGTCTCAAC / GTTGAGACCGGTTGAGATCGGTTGAGTCCCTACCCTACGTCCTCCTGC [LH7]” was “binds more weakly”. Same read-out and setting: in the case of “GGCGTTGGTGCAGGTCGAGGGGTTACCGACGCGCCCGCCA / TGGCGGGCGCGTCGGTAACCCCTCGACCTGCACCAACGCCCCTACCCTACGTCCTCCTGC [O4]” it was “no binding”; in that of “GTCGTGGAAAACGCTAGCGCCGGCGCGGGAACATGTCCTC / GAGGACATGTTCCCGCGCCGGCGCTAGCGTTTTCCACGACCCTACCCTACGTCCTCCTGC [O6]”, “no binding”; in that of “GTTCCCCATTCGGACTCAACCGATCTCAACCGGTCTCAAC / GTTGAGACCGGTTGAGATCGGTTGAGTCCGAATGGGGAACCCTACCCTACGTCCTCCTGC [LH1]”, “binds”. Take “TACATGCAGCGGATGAGGGAGCCGGTCTCAACAT / ATGTTGAGACCGGCTCCCTCATCCGCTGCATGTACCTACCCTACGTCCTCCTGC [DR3only]”: the binding result was “binds”. Consider “TACATGCAGCGGCGATCTCAACATGAGGGAGCAT / ATGCTCCCTCATGTTGAGATCGCCGCTGCATGTACCTACCCTACGTCCTCCTGC [DR2only]”, for which the binding result was “no binding”. As for “TACGGACTCAACCATGCAGCGGATGAGGGAGCAT / ATGCTCCCTCATCCGCTGCATGGTTGAGTCCGTACCTACCCTACGTCCTCCTGC [DR1only]”, the binding result is recorded as “no binding”.

Still in this series, the particulars now being: almost as well as DR123; SPR (ReDCaT): 10 mM HEPES pH 7.4, 250 mM NaCl, 3 mM EDTA, 0.05% Tween 20; DNA 1 uM; temperature not stated; recombinant protein; protein details: N-terminal 6xHis (pET15b); label: captured via biotinylated ReDCaT linker.
As for “TACATGCAGCGGCGATCTCAACCGGTCTCAACAT / ATGTTGAGACCGGTTGAGATCGCCGCTGCATGTACCTACCCTACGTCCTCCTGC [DR23]”, the binding result is reported as “binds”.

The series is the same for the next values; noted with them: higher affinity than O1; SPR (ReDCaT): 10 mM HEPES pH 7.4, 250 mM NaCl, 3 mM EDTA, 0.05% Tween 20; DNA 1 uM; temperature not stated; recombinant protein; protein details: N-terminal 6xHis (pET15b); label: captured via biotinylated ReDCaT linker.
With “GATCTCAACCGGTCTCAACTGCTCCCCGCCGAATTCGACT / AGTCGAATTCGGCGGGGAGCAGTTGAGACCGGTTGAGATCCCTACCCTACGTCCTCCTGC [O2]”, the binding result was “binds”.

Staying with this series, now noted: highest of the DR set; SPR (ReDCaT): 10 mM HEPES pH 7.4, 250 mM NaCl, 3 mM EDTA, 0.05% Tween 20; DNA 1 uM; temperature not stated; recombinant protein; protein details: N-terminal 6xHis (pET15b); label: captured via biotinylated ReDCaT linker.
On to “TACGGACTCAACCGATCTCAACCGGTCTCAACAT / ATGTTGAGACCGGTTGAGATCGGTTGAGTCCGTACCTACCCTACGTCCTCCTGC [DR123]”, for which the binding result is on record as “binds”.

The same series, now with this note: lower affinity than O2; SPR (ReDCaT): 10 mM HEPES pH 7.4, 250 mM NaCl, 3 mM EDTA, 0.05% Tween 20; DNA 1 uM; temperature not stated; recombinant protein; protein details: N-terminal 6xHis (pET15b); label: captured via biotinylated ReDCaT linker.
Turning to “TCACGTTCCCCATTCGGACTCAACCGATCTCAACCGGTCT / AGACCGGTTGAGATCGGTTGAGTCCGAATGGGGAACGTGACCTACCCTACGTCCTCCTGC [O1]”, the binding result is “binds”.

The same series, now with this note: severe drop; SPR (ReDCaT): 10 mM HEPES pH 7.4, 250 mM NaCl, 3 mM EDTA, 0.05% Tween 20; DNA 1 uM; temperature not stated; recombinant protein; protein details: N-terminal 6xHis (pET15b); label: captured via biotinylated ReDCaT linker.
“CGGACTCAACCGATCTCAAC / CCTACCCTACGTCCTCCTGCGTTGAGATCGGTTGAGTCCG [RH11]”: the binding result was “binds more weakly”. Take “CGGACTCAACCGATCTCAACCG / CCTACCCTACGTCCTCCTGCCGGTTGAGATCGGTTGAGTCCG [RH10]”: the binding result was “binds more weakly”.

Turning to “CGGACTCAACCGATCTCAACCGGT / CCTACCCTACGTCCTCCTGCACCGGTTGAGATCGGTTGAGTCCG [RH9]”, the binding result was “binds more weakly”. Regarding “CGGACTCAACCGATCTCAACCGGTCT / CCTACCCTACGTCCTCCTGCAGACCGGTTGAGATCGGTTGAGTCCG [RH8]”, the binding result is recorded as “binds more weakly”. Still for that read-out and setting: in the case of “CGGACTCAACCGATCTCAACCGGTCTCA / CCTACCCTACGTCCTCCTGCTGAGACCGGTTGAGATCGGTTGAGTCCG [RH7]” it was “binds more weakly”.

The series is the same for the next values; noted with them: strong; SPR (ReDCaT): 10 mM HEPES pH 7.4, 250 mM NaCl, 3 mM EDTA, 0.05% Tween 20; DNA 1 uM; temperature not stated; recombinant protein; protein details: N-terminal 6xHis (pET15b); label: captured via biotinylated ReDCaT linker.
As for “TACGGACTCAACCATGCAGCGGCGGTCTCAACAT / ATGTTGAGACCGCCGCTGCATGGTTGAGTCCGTACCTACCCTACGTCCTCCTGC [DR13]”, the binding result is on record as “binds”.
